# Library screen at single concentrations

By UniProt entry, the sequences of proteins in these tests, tags left out.
UniProt P9WPC5, whole entry: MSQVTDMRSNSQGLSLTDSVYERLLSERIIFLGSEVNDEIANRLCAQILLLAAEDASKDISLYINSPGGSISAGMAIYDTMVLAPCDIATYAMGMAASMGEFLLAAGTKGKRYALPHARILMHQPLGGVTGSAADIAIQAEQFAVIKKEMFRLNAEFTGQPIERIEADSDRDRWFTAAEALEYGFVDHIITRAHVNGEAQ
UniProt P9WPC3, whole entry partner: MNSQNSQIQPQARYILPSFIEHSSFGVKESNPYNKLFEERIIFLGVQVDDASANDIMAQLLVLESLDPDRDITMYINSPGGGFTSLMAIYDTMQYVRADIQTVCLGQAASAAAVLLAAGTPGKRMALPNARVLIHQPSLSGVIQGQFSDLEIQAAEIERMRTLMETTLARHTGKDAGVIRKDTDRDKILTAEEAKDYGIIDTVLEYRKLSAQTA
UniProt P9WNZ1, whole entry: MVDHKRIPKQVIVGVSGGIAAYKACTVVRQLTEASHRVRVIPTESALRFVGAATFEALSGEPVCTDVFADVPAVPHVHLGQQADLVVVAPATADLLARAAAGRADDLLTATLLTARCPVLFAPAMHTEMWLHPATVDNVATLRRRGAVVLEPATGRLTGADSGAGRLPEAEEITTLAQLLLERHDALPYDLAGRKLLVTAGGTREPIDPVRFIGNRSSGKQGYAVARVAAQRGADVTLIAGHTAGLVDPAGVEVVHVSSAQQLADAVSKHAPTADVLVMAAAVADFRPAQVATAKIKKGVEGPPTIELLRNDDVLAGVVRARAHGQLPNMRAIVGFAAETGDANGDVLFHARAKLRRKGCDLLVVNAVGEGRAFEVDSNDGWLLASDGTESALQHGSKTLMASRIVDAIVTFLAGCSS

The values are deposited in ChEMBL (CHEMBL3988442, “University of Dundee, Small-Polar-MMV Screening Library” (2021)).

Toxoplasma: 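Assay of Toxoplasma gondii numbers, read through their beta-galactosidase reporter with a colour substrate. Compounds at 10 µM. The record gives no direction; the compounds picked for IC50 retests had high values, so higher reads as fewer parasites. Size under these conditions: about 67,000 compounds, about 260 of them at 50% or above in at least one test.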
ClpP1P2: 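ClpP1P2, Mycobacterium tuberculosis (UniProt P9WPC5 and UniProt P9WPC3). Protease assay of ClpP1P2, read by the AMC dye that it sets free. Compounds at 50 µM. Direction is inferred from only a few compounds that gave an IC50; most scored high, so higher reads as stronger inhibition. Most other retested compounds had strongly negative values. About 69,000 compounds were tested under these conditions; 0.015% (about 10) showed 50% or more at least once.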
T. brucei: 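Whole-parasite assay of Trypanosoma brucei over 72 hours; the read-out is not stated. Tested at 30 µM. The record gives no direction; compounds that gave an IC50 in retests scored well above the rest, so higher reads as stronger inhibition. Values scatter widely below zero; nearly all retest evidence comes from the higher of the two concentrations used. Of about 64,000 compounds tested this way, about 940 (1.5%) reached 50% or more in at least one test.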
CoaBC: 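Coenzyme A biosynthesis protein CoaBC, Mycobacterium tuberculosis (UniProt P9WNZ1). Enzyme assay of CoaBC with a phosphate dye (Biomol Green) read at 650 nm. Tested at 30 µM. Higher reads as stronger inhibition, judged from the few compounds that gave an IC50. Most strong results did not repeat in a second test. About 67,000 compounds were tested under these conditions; 0.06% (about 40) showed 50% or more at least once.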

The filed quantity is “Percent Effect” (%).
The record does not define 0% and 100%; most values in the screen are far below 50% and negative numbers occur (in some assays of this library far below -100).
This is an unselected part of the compounds tested.
Two or more numbers in one place are separate tests of the same structure; such repeats can differ widely.

Result for O=C(N1CCCC(n2cncn2)C1)C1(c2cccc(F)c2)CC1 (configuration not stated) was Toxoplasma: -9.535%; ClpP1P2: -28.9%; T. brucei: -17.42%; CoaBC: 7.024%.
Result for CC(NC(=O)Cc1cccs1)c1nnc2n1CCC2 (configuration not stated) was Toxoplasma: -6.205%; ClpP1P2: 13.19%; T. brucei: -8.526%; CoaBC: 10.09%.
Result for COCCN1CCCC2(CCN(c3ccsc3)C2=O)C1 (configuration not stated) was ClpP1P2: -8.753%; CoaBC: -0.618%.
Result for Cc1cnn(CC(=O)NCC2(O)CCCc3ccccc32)c1 (configuration not stated) was Toxoplasma: -12.15%; ClpP1P2: -10.75%; T. brucei: -35.15%; CoaBC: -1.985%.
Result for CN(C)CCN1CCOCC2(CCCN(C(=O)c3ccoc3)C2)C1.O=C(O)C(F)(F)F.O=C(O)C(F)(F)F (configuration not stated) was Toxoplasma: 1.07%; T. brucei: -2.813%.
Result for Cc1csc(N(C)C(=O)C2CC(=O)N(CCc3ccccc3)C2)n1 (configuration not stated) was Toxoplasma: -3.609%; ClpP1P2: 1.134%; T. brucei: -15.34%; CoaBC: 5.372%.
Result for CC(C)c1cc2c(O)nc(CSCC(=O)NCc3ccccn3)nc2s1 was Toxoplasma: 9.566%; ClpP1P2: 2.639%; T. brucei: -16.02%; CoaBC: -7.495%.
Result for O=c1cc(C2CCNCC2)nc(CCc2ccccn2)[nH]1 was Toxoplasma: 0.2875%; ClpP1P2: 4.391%; T. brucei: -0.3055%; CoaBC: 23.14% & 9.524%.
Result for CC(C)(C)c1ncc(CNCC2CCCN2c2cccnn2)s1 (configuration not stated) was Toxoplasma: 5.776%; ClpP1P2: 5.075%; CoaBC: -13.67%.
Result for Cc1ccccc1NC(=O)Nc1c[nH]c(=O)[nH]c1=O was Toxoplasma: 18.33%; ClpP1P2: -1.24%; T. brucei: 5.255%; CoaBC: -0.3632%.
Result for O=C(O)C(F)(F)F.[H][C@@]12CCN(C(=O)c3cscn3)[C@@]1([H])CCN2CC1CCOCC1 was Toxoplasma: -5.3%; T. brucei: -47.9%.
Result for [H][C@@]12CCCO[C@]1([H])[C@H](OCC(=O)N(C)C)CN2Cc1c(C)noc1C was Toxoplasma: 2.66%; T. brucei: -2.748%.
Result for O=C(Cn1cccn1)NCC(c1cccs1)N1CCCC1 (configuration not stated) was ClpP1P2: -19.62%; T. brucei: -17.28%; CoaBC: 2.337%.
Result for O=C1CC2(CCN(C(=O)Cc3cc4c(cc3Cl)OCCO4)C2)C(=O)N1 (configuration not stated) was Toxoplasma: 3.21%; ClpP1P2: -2.912%; T. brucei: -95.89%; CoaBC: 0%.
Result for Cc1noc(Cl)c1CCC(=O)N1CCN(CC(C)(C)O)CC1 was Toxoplasma: 11.6%; ClpP1P2: 0.2264%; T. brucei: -23.92%; CoaBC: 2.999%.
Result for O=C(c1ccnnc1)N1CCO[C@H]2[C@@H](OCc3cccnc3)CC[C@@H]21 was ClpP1P2: -10.25%; CoaBC: 10.75%.
Result for Cc1cc(C)n(CC2CN(Cc3nc(-c4ccco4)no3)CCO2)n1 (configuration not stated) was Toxoplasma: -3.115%; ClpP1P2: -0.6075%; T. brucei: 5.482%; CoaBC: -2.108%.
Result for Cc1cc(CN(C)C(=O)c2ccc(Cl)cc2N2CCCC2=O)no1 was Toxoplasma: -29.83%; ClpP1P2: -5.71%; T. brucei: -10.09%; CoaBC: 2.551%.
Result for CC(=O)N1CCO[C@@H]2CN(Cc3cccc(Cl)c3)C[C@@H]2C1 was ClpP1P2: -10.48%; CoaBC: -0.2475%.
Result for Cc1ccc2nc(CNCCCN3CCCC3=O)cc(O)c2c1 was Toxoplasma: -5.463%; ClpP1P2: 3.511%; T. brucei: 2.24%; CoaBC: -0.2123%.
Result for CS(=O)(=O)NC[C@]12COC[C@H]1CN(C(=O)C1CC(F)(F)C1)C2 was ClpP1P2: 3.38%; CoaBC: -7.407%.